PubChem BioAssay AID743454 – Peter MacCallum Cancer Centre | 2014
The whole screen tested about 18,000 reagents; this is an unselected part. 450 of them (2.5%) count as active. 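Single biological run; no consistent viability z cut-off exists, so the class columns, not z-scores, define the calls.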 The numbers tell different reagents against one gene apart.

Screen: 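Knock-downs lowering viability or raising caspase 3/7 activity in vorinostat-treated resistant cells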 (primary screen)
Cell system: human HCT116-VR colon cancer cells, selected for vorinostat resistance
Reagent: siRNA pool against human genes, 40 nM siRNA pool
Timing: vorinostat for 24 h, read-out about 72 h after transfection
Conditions: vorinostat at 2.5 µM final
Measured: 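Cell viability by CellTiter-Fluor and caspase 3/7 activity by luminescence, each scaled to mock wells per plate, duplicates averaged, then robust z-scored over all plates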
Direction: viability robust z-score: higher = more viable cells than screen typical; caspase robust z-score: higher = more caspase 3/7 activity than screen typical
Hit rule: 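Hits are knock-downs in viability class RV1/RV2 or caspase class CA1/CA2, excluding ones that killed cells in the no-drug cell-count arm; hits then retested with single siRNAs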

ZNF705A
- viability hit class: no change
- caspase hit class: no change
- viability robust z-score: 0.13
- caspase robust z-score: 0.68
- call: inactive

OAF
- viability hit class: no change
- caspase hit class: no change
- viability robust z-score: -1.59
- caspase robust z-score: 2.1
- call: inactive

TRIM59
- viability hit class: no change
- caspase hit class: CA2 (caspase activation)
- viability robust z-score: -3.25
- caspase robust z-score: 6.57
- call: active

ZNF589
- viability hit class: no change
- caspase hit class: no change
- viability robust z-score: 0.36
- caspase robust z-score: -0.01
- call: inactive

DNAI4
- viability hit class: no change
- caspase hit class: CA2 (caspase activation)
- viability robust z-score: -0.1
- caspase robust z-score: 5.31
- call: active

ADAMTS3
- viability hit class: no change
- caspase hit class: no change
- viability robust z-score: 0.76
- caspase robust z-score: -0.92
- call: inactive

PPP1R35
- viability hit class: no change
- caspase hit class: no change
- viability robust z-score: -0.1
- caspase robust z-score: 1.04
- call: inactive

MAGEA1
- viability hit class: no change
- caspase hit class: no change
- viability robust z-score: -0.05
- caspase robust z-score: 1.06
- call: inactive

PRAMEF3 (retired record)
- viability hit class: no change
- caspase hit class: no change
- viability robust z-score: 0.24
- caspase robust z-score: -0.75
- call: inactive

DIS3
- viability hit class: no change
- caspase hit class: no change
- viability robust z-score: -0.1
- caspase robust z-score: -0.36
- call: inactive

UBXN6
- viability hit class: no change
- caspase hit class: no change
- viability robust z-score: -0.3
- caspase robust z-score: 1.89
- call: inactive

ERCC6L2 #1
- viability hit class: no change
- caspase hit class: no change
- viability robust z-score: 0.59
- caspase robust z-score: -0.57
- call: inactive

ERCC6L2 #2
- viability hit class: no change
- caspase hit class: no change
- viability robust z-score: -0.24
- caspase robust z-score: 0.2
- call: inactive

CPEB1
- viability hit class: no change
- caspase hit class: no change
- viability robust z-score: -0.99
- caspase robust z-score: 1.89
- call: inactive

NDUFAB1
- viability hit class: no change
- caspase hit class: no change
- viability robust z-score: -0.71
- caspase robust z-score: 0.36
- call: inactive

GRIA2
- viability hit class: no change
- caspase hit class: no change
- viability robust z-score: 0.18
- caspase robust z-score: -1.07
- call: inactive

FAM20A
- viability hit class: no change
- caspase hit class: no change
- viability robust z-score: -0.28
- caspase robust z-score: 0.94
- call: inactive

HDAC11
- viability hit class: no change
- caspase hit class: no change
- viability robust z-score: -0.28
- caspase robust z-score: -0.46
- call: inactive

TMEM186
- viability hit class: no change
- caspase hit class: no change
- viability robust z-score: -0.54
- caspase robust z-score: 0.32
- call: inactive

OR5AP2
- viability hit class: no change
- caspase hit class: no change
- viability robust z-score: 0.42
- caspase robust z-score: 0.43
- call: inactive

INO80C
- viability hit class: no change
- caspase hit class: no change
- viability robust z-score: -1.1
- caspase robust z-score: -0.18
- call: inactive

PIERCE1
- viability hit class: no change
- caspase hit class: no change
- viability robust z-score: 0.99
- caspase robust z-score: 1.26
- call: inactive

KCNK5
- viability hit class: no change
- caspase hit class: no change
- viability robust z-score: 0.88
- caspase robust z-score: 0.75
- call: inactive

PCDHGA3
- viability hit class: no change
- caspase hit class: no change
- viability robust z-score: 0.63
- caspase robust z-score: -0.3
- call: inactive

KIF2B
- viability hit class: no change
- caspase hit class: no change
- viability robust z-score: 0.3
- caspase robust z-score: -0.69
- call: inactive

DRC12
- viability hit class: no change
- caspase hit class: no change
- viability robust z-score: 0.24
- caspase robust z-score: -0.35
- call: inactive

OR4C3
- viability hit class: no change
- caspase hit class: no change
- viability robust z-score: 0.45
- caspase robust z-score: -0.07
- call: inactive

Hits (from the list above):
TRIM59
- viability hit class: no change
- caspase hit class: CA2 (caspase activation)
- viability robust z-score: -3.25
- caspase robust z-score: 6.57
- call: active

DNAI4
- viability hit class: no change
- caspase hit class: CA2 (caspase activation)
- viability robust z-score: -0.1
- caspase robust z-score: 5.31
- call: active
